The source of these data is PubChem BioAssay AID256 (DTP/NCI, 2004).

The list shows only some results of the screen, not a fair sample: it covers a few groups of compounds. Other doses and runs of a compound may be missing. T/C gives the treated animals as a percentage of the vehicle group. Where survival is the endpoint, this PubChem deposit counts one and a half times the control or more as active, and values a quarter to a half above the control carry no call in these data; other NCI protocols may use other cut-offs. Schedules are NCI's codes, read here as Q, the interval in days (D) or hours (H), X, the number of doses. Some entries show no survivor count and are marked so; the dose need not have been tolerated. Some entries were tested several times; the values are given in rising order.

The subject of this experiment is CD2F1 mice, L1210 leukemia ip, survival T/C. In words: NCI In Vivo Anticancer Drug Screen. Data for tumor model L1210 Leukemia (intraperitoneal) in CD2F1 (CDF1) mice. To be noted: higher T/C = longer survival. The procedure:
The antitumor activity of compounds was measured in mice bearing transplantable tumors. Survival or tumor size were measured and the results are expressed as the measurement made in the treated group (T) divided by the measurement made in the vehicle treated control group (C). The tumor model used in this assay is L1210 Leukemia (intraperitoneal) in CD2F1 (CDF1) mice

The mark [1] stands for this setting: T/C endpoint: mean survival time, dose: 0.62 mg/kg/injection, schedule: Q01DX009 (ip), vehicle: Klucel (hydroxypropylcellulose) (HPC).
[2] abbreviates: T/C endpoint: mean survival time, dose: 1.25 mg/kg/injection, schedule: Q01DX009 (ip), vehicle: Klucel (hydroxypropylcellulose) (HPC).

Consider `CC(=O)OC[C@]12CCC(C)=C[C@H]1O[C@@H]1[C@H](O)[C@@H](OC(C)=O)[C@@]2(C)[C@@]12CO2`, for which the T/C is, setting by setting: (T/C endpoint: mean survival time, dose: 3.13 mg/kg/injection, schedule: Q04DX002 (ip), vehicle: saline with Tween-80) 105 % of control [survivor count not shown]; (T/C endpoint: mean survival time, dose: 6.25 mg/kg/injection, schedule: Q04DX002 (ip), vehicle: saline with Tween-80) 101 % of control [survivor count not shown]; (T/C endpoint: mean survival time, dose: 12.5 mg/kg/injection, schedule: Q04DX002 (ip), vehicle: saline with Tween-80) 116 % of control [survivor count not shown].
Consider `C=C(C)C(=O)OCC12CCC(C)=CC1OC1C(=O)C(OC(=O)C(=C)C)C2(C)C12CO2` (stereo not given), for which the T/C reads like this: (T/C endpoint: median survival time, dose: 0.25 mg/kg/injection, schedule: Q01DX009 (ip), vehicle: DMSO) 103 % of control [survivor count not shown]; (T/C endpoint: median survival time, dose: 0.25 mg/kg/injection, schedule: Q01DX009 (ip), vehicle: distilled water + Tween-80) 100 % of control [survivor count not shown]; (T/C endpoint: median survival time, dose: 0.5 mg/kg/injection, schedule: Q01DX009 (ip), vehicle: DMSO) 111 % of control [survivor count not shown]; (T/C endpoint: median survival time, dose: 0.5 mg/kg/injection, schedule: Q01DX009 (ip), vehicle: distilled water + Tween-80) 102 % of control [survivor count not shown]; (T/C endpoint: median survival time, dose: 1.0 mg/kg/injection, schedule: Q01DX009 (ip), vehicle: distilled water + Tween-80) 101 % of control [survivor count not shown]; (T/C endpoint: median survival time, dose: 2.0 mg/kg/injection, schedule: Q01DX009 (ip), vehicle: distilled water + Tween-80) 108 % of control [survivor count not shown]. Also, the T/C (T/C endpoint: median survival time, dose: 4.0 mg/kg/injection, schedule: Q01DX009 (ip), vehicle: distilled water + Tween-80) was 111 % of control [survivor count not shown].
Regarding `CC1=CC2OC3CC4OC(=O)/C=C/C=C/C(C(C)O)OCC(O)C(C)CC(=O)OCC2(CC1O)C4(C)C31CO1` (stereo not given), the T/C is 114 % of control [survivor count not shown] (T/C endpoint: mean survival time, dose: 0.08 mg/kg/injection, schedule: Q01DX009 (ip), vehicle: Klucel (hydroxypropylcellulose) (HPC)); 106 % of control [survivor count not shown] (T/C endpoint: mean survival time, dose: 0.16 mg/kg/injection, schedule: Q01DX009 (ip), vehicle: Klucel (hydroxypropylcellulose) (HPC)); 117 % of control [survivor count not shown] (T/C endpoint: mean survival time, dose: 0.31 mg/kg/injection, schedule: Q01DX009 (ip), vehicle: Klucel (hydroxypropylcellulose) (HPC)); 120 % of control [survivor count not shown] under setting [1]; 123 % of control [survivor count not shown] under setting [2].
Consider `CC1=CC2OC3CC4OC(=O)/C=C/C=C/C(C(C)O)OCC/C(C)=C/C(=O)OCC2(CC1)C4(C)C31CO1` (stereo not given), for which the T/C is 108 [survivor count not shown] and 112 % of control [survivor count not shown] (T/C endpoint: mean survival time, dose: 0.78 mg/kg/injection, schedule: Q01DX009 (ip), vehicle: saline + Tween-80 + alcohol); 120 [survivor count not shown] and 122 % of control [survivor count not shown] (T/C endpoint: mean survival time, dose: 1.56 mg/kg/injection, schedule: Q01DX009 (ip), vehicle: saline + Tween-80 + alcohol); 122 [survivor count not shown] and 123 % of control [survivor count not shown] (T/C endpoint: mean survival time, dose: 3.12 mg/kg/injection, schedule: Q01DX009 (ip), vehicle: saline + Tween-80 + alcohol); 125 [survivor count not shown] and 131 % of control [survivor count not shown] (T/C endpoint: mean survival time, dose: 6.25 mg/kg/injection, schedule: Q01DX009 (ip), vehicle: saline + Tween-80 + alcohol); 118 % of control [survivor count not shown] (T/C endpoint: mean survival time, dose: 12.5 mg/kg/injection, schedule: Q01DX009 (ip), vehicle: saline + Tween-80 + alcohol).
For `CC(=O)OC[C@]12C[C@H](OC(=O)CC(C)C)C(C)=C[C@H]1O[C@@H]1[C@H](O)[C@@H](O)[C@@]2(C)[C@@]12CO2`, the T/C runs as follows: (T/C endpoint: mean survival time, dose: 0.5 mg/kg/injection, schedule: Q01DX009 (ip), vehicle: saline) 117 % of control [survivor count not shown]; (T/C endpoint: mean survival time, dose: 1.0 mg/kg/injection, schedule: Q01DX009 (ip), vehicle: saline) 125 % of control [survivor count not shown]; (T/C endpoint: mean survival time, dose: 2.0 mg/kg/injection, schedule: Q01DX009 (ip), vehicle: saline) 134 % of control [survivor count not shown].
On to `C[C@H](O)[C@H]1/C=C/C=C\C(=O)O[C@@H]2C[C@H]3O[C@@H]4[C@@H]5O[C@]5(C)CCC4(COC(=O)[C@H]4O[C@]4(C)[C@@H](O)CO1)[C@]2(C)[C@]31CO1` (stereo not given in full), for which the T/C runs as follows: (T/C endpoint: mean survival time, dose: 625.0 micrograms/kg/injection, schedule: Q01DX009 (ip), vehicle: saline + alcohol) 138 % of control [survivor count not shown]; (T/C endpoint: mean survival time, dose: 1250.0 micrograms/kg/injection, schedule: Q01DX009 (ip), vehicle: saline + alcohol) 134 % of control [survivor count not shown]; (T/C endpoint: mean survival time, dose: 2500.0 micrograms/kg/injection, schedule: Q01DX009 (ip), vehicle: saline + alcohol) 149 % of control [survivor count not shown]; (T/C endpoint: mean survival time, dose: 5000.0 micrograms/kg/injection, schedule: Q01DX009 (ip), vehicle: saline + alcohol) 151 % of control [survivor count not shown].
Turning to `CC(=O)OC[C@]12C[C@H](OC(=O)CC(C)C)C(C)=C[C@H]1OC1[C@H](O)[C@@H](OC(C)=O)[C@@]2(C)[C@@]12CO2`, the T/C was 107 % of control [survivor count not shown] (T/C endpoint: mean survival time, dose: 0.17 mg/kg/injection, schedule: Q01DX009 (ip), vehicle: Klucel (hydroxypropylcellulose) (HPC)); 122 % of control [survivor count not shown] (T/C endpoint: mean survival time, dose: 0.26 mg/kg/injection, schedule: Q01DX009 (ip), vehicle: Klucel (hydroxypropylcellulose) (HPC)); 134 % of control [survivor count not shown] (T/C endpoint: median survival time, dose: 0.25 mg/kg/injection, schedule: Q01DX009 (ip), vehicle: Klucel (hydroxypropylcellulose) (HPC)); 134 % of control [survivor count not shown] (T/C endpoint: median survival time, dose: 0.5 mg/kg/injection, schedule: Q01DX009 (ip), vehicle: Klucel (hydroxypropylcellulose) (HPC)).
As to `CC1=C[C@H]2O[C@@H]3C[C@H]4OC(=O)/C=C\C=C\[C@H]([C@@H](C)O)OC[C@H](O)[C@@]5(C)O[C@@H]5C(=O)OC[C@@]2(C[C@H]1O)[C@]4(C)C31CO1` (stereo not given in full), the T/C runs as follows: (T/C endpoint: mean survival time, dose: 0.15 mg/kg/injection, schedule: Q01DX009 (ip), vehicle: Klucel (hydroxypropylcellulose) (HPC)) 104 % of control [survivor count not shown]; under setting [1], 119 % of control [survivor count not shown]; under setting [2], 114 % of control [survivor count not shown]; (T/C endpoint: mean survival time, dose: 5.0 mg/kg/injection, schedule: Q01DX009 (ip), vehicle: Klucel (hydroxypropylcellulose) (HPC)) 86 % of control [survivor count not shown].
